Measurements as given in patent publication US5747235A, “Silver halide light sensitive emulsion layer having enhanced photographic sensitivity” (Eastman Kodak Company, priority 1996, dated 1998).

Experiment: Example 5: photographic speed and fog, 365 nm exposure, fragmenting vs non-fragmenting one-electron donors, emulsion T-2
Conditions: Table V
Experimental: For photographic evaluation, each of the coating strips was exposed for 0.1 sec to a 365 nm emission line of a Hg lamp filtered through a Kodak Wratten filter number 18A and a step wedge ranging in density from 0 to 4 density units in 0.2 density steps. The exposed film strips were developed for 6 min in Kodak Rapid X-ray Developer (KRX). S365, relative sensitivity at 365 nm, was evaluated at a density of 0.2 units above fog.
An AgBrI tabular silver halide emulsion (Emulsion T-2) was prepared containing 4.05% total I distributed such that the central portion of the emulsion grains contained 1.5% I and the perimeter area contained substantially higher I, as described by Chang et. al., U.S. Pat. No. 5,314,793. […] This emulsion was precipitated using deionized gelatin. The emulsion was sulfur sensitized by adding 8.5×10^-6 mole 1,3-dicarboxymethyl-1,3-dimethyl-2-thiourea /mole Ag at 40° C.; the temperature was then raised to 60° C. at a rate of 5° C./3 min and the emulsions held for 20 min before cooling to 40° C. The chemically sensitized emulsion was then used to prepare coatings containing the fragmentable two-electron donor compounds. […] Where present, the blue sensitizing dye D-I or the red sensitizing dye D-II were added from methanol solution to the emulsion at 40° C. after the chemical sensitization and disulfocatechol addition. […]

SMILES	Reactivity of XY+.
CCSCCN(CCSCC)c1ccc(CC(=O)O)cc1 [Compound S-17, Sodium 2-(4-N,N-bis(ethylthioethyl)aminophenyl)acetate]	fragments
CCSCCNC(=O)CCN(CC)c1ccc(CC(=O)O)cc1 [Compound S-18]	fragments
